Assay results from PubChem BioAssay AID504834 (National Center for Advancing Translational Sciences (NCATS), 2011).
The campaign covered roughly 320,000 compounds. About 22,000 (6.9%) were called active. Inconclusive results, whose numbers are uncertain, are shown with a selection of clear calls. Calls come from the whole dose curve; as a rule, active = well fitted inhibition curve with a large enough effect; inconclusive = small, poorly fitted or top-dose-only effect, or another doubt; inactive = no such curve, though single readings can be large or run the other way. Potencies beside an inconclusive call are fits to weak or partial responses and may not hold up.

Assay: Primary qHTS for delayed death inhibitors of the malarial parasite plastid, 96 hour incubation
Conditions: P. falciparum luciferase reporter growth; series mostly up to 28.7 µM
Outline: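 Two parasite generations (96 h, 37 C, 5% CO2) of compound exposure in infected erythrocytes (0.05% parasitemia, 2% hematocrit). Luciferase-reporter P. falciparum; decreased luminescence indicates inhibited growth, aimed at apicoplast-acting delayed death.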
% is set by controls: 0 for no effect and ±100 for the full control effect; potency is the fitted concentration of half-maximal effect.

Row | Compound | Potency | activity change, negative = inhibition
1 | CC1(C)CC(=O)C(C=NCCc2ccc(O)cc2)=C(O)C1 | active: 5.22 µM | 
2 | Cc1ccc(Nc2nc(-c3cccnc3)nc3ccccc23)cc1 | inactive | 
3 | Cc1ccccc1NC(=O)C(=O)NNC(=O)COc1ccc2ccccc2c1 | inconclusive: 7.38 µM [inhibitor, partial curve] | 
4 | CCOC(=O)C/C(C)=N/NC(=O)C1CC1(c1ccccc1)c1ccccc1 (centres undefined) | inconclusive: 18.5 µM [inhibitor, single point] | 
5 | COc1cc(C)c(C)cc1S(=O)(=O)NC1CC(C)(C)NC(C)(C)C1 | inactive | 
6 | O=c1cc(-c2ccccc2Cl)oc2ccc([N+](=O)[O-])c(O)c12 | inconclusive: 11.7 µM [inhibitor, single point] | 
7 | COc1ccccc1CN=C1NC(=O)C(CC(=O)Nc2ccc(OC)c(OC)c2)S1 (centres undefined) | inconclusive: 8.28 µM [inhibitor, partial curve, poor fit] | 
8 | CC(C)CCNC(=O)c1c[nH]c2ccc(S(=O)(=O)N3CCOCC3)cc2c1=O | inconclusive: 9.28 µM [inhibitor, partial curve, poor fit] | 
9 | CCCCOC(=O)c1ccc(NC(=O)c2cc(Cl)ccc2OC)cc1 | inconclusive: 10.4 µM [inhibitor, single point] | 
10 | CCOc1ccc(N(CC(=O)NCCSCc2ccc(Cl)cc2)S(C)(=O)=O)cc1 | inconclusive: 18.5 µM [inhibitor, single point] | 
11 | CCOC(=O)c1cn[nH]c1N | inactive | 
12 | CCOCC(=O)Nc1cc(C(=O)Nc2ccc(F)cc2)ccc1Cl | inactive | 
13 | CN(Cc1ccncc1)C1CC(=O)N(c2ccc(F)cc2)C1=O (centres undefined) | inconclusive: 4.65 µM [inhibitor, partial curve, poor fit] | 
14 | Cc1nnc(Sc2cc(NCCCO)c([N+](=O)[O-])c3nonc23)s1 | inconclusive: 13.1 µM [inhibitor, partial curve, poor fit] | 
15 | COc1ccc(C(=O)NC(=S)N(C)Cc2ccccc2)cc1Br | inactive | 
16 | Cn1cccc1C(=O)OCC(=O)N1CC(=O)Nc2ccccc21 | inactive | 
17 | Cc1nc2ccccc2c2oc(C(=O)NCCCN3CCCC3=O)cc12 | inconclusive: 10.4 µM [inhibitor, partial curve, poor fit] | 
18 | Cc1ccc(-n2ncc(C#N)c2N)cc1 | inactive | 
19 | O=C(CN1C(=O)c2ccccc2C1=O)Nc1ccccc1C(F)(F)F | inconclusive: 10.4 µM [inhibitor, single point] | 
20 | Cc1ccccc1NC(=O)CCC(=O)N/N=C/c1ccncc1 | inactive | 
21 | O=S(c1ccc2ccccc2c1)c1cnns1 (centres undefined) | inconclusive: 0.0738 µM [inhibitor, full curve, poor fit] | 
22 | Cc1ccc(CC2CC(=O)N(c3cc(C)ccc3C)C2=O)cc1 (centres undefined) | inactive | 
23 | COc1cc(OC)cc(-c2c(-c3ccc(F)cc3)c3cc(-c4ccc5[nH]ccc5c4)ccc3n2C)c1 | active: 1.65 µM | 

Row | Compound | Potency | activity change, negative = inhibition
24 | O=C(c1ccoc1)N1CCC2(CC1)Oc1ccc(F)cc1C(=O)C21CC(c2cccnc2)=NO1 (centres undefined) | inconclusive: 13.1 µM [inhibitor, single point] | 
25 | Cc1ccc(-c2[nH]c3ccccc3c2SCCNC(=O)c2cc3ccccc3oc2=O)cc1 | active: 5.86 µM | 
26 | Cc1ccc(N=C2C(=S)N(c3ccc(C)cc3)C(=N)N2/N=C/c2ccc(Cl)cc2)cc1 | inconclusive: 16.5 µM [inhibitor, single point] | 
27 | COc1ccc(NC(=O)c2cc(CC(C)C)on2)cc1OC | inconclusive: 26.2 µM [inhibitor, partial curve, poor fit] | 
28 | O=C(CSc1nc(NS(=O)(=O)c2ccccc2)cc(=O)[nH]1)Nc1cccc(C(F)(F)F)c1 | inactive | 
29 | Cc1nn(CC2CC2)c(=O)n1-c1ccccc1 | inactive | 
30 | C[C@@H](C(=O)O)[C@H]1C[C@]1(C)[C@H](NC(=O)OCc1ccccc1)c1ccccc1 | inconclusive: 6.57 µM [inhibitor, partial curve, poor fit] | 
31 | COc1ccc(O)c(CN2CCC(n3nccc3NC(=O)C3CCCC3)CC2)c1 | inconclusive: 13.1 µM [inhibitor, single point] | 
32 | C=CCc1ccc(OCCn2nnc3ccccc32)c(OC)c1 | inconclusive: 18.5 µM [inhibitor, single point] | 
33 | COC(=O)N/N=C/c1ccc(OCCSc2ccc(Cl)cc2)c(OC)c1 | inconclusive: 18.5 µM [inhibitor, single point] | 
34 | C#CCOCCOCCOCCNc1nc(N2CCN(C(=O)[C@H](C)n3cc(CCCN=C(N)N)nn3)CC2)nc(N2CCN(C(=O)[C@H](C)n3cc(CCCN=C(N)N)nn3)CC2)n1 | active: 0.738 µM | 
35 | COc1cc(Nc2nc3ccccc3nc2NS(=O)(=O)c2ccc([N+](=O)[O-])cc2)cc(OC)c1OC | inconclusive: 14.7 µM [inhibitor, partial curve, poor fit] | 
36 | O=C(CSc1ccc(F)cc1)Nc1ccc(Br)cc1 |  | inactive: 17.2% [at 5.75 µM]
37 | CC(=O)Nc1cc2nc(C)n(Cc3ccccc3)c2nc1C | inconclusive: 14.7 µM [inhibitor, partial curve, poor fit] | 
38 | O=C(c1ccco1)N1CCN(C(=O)c2cc(-c3ccc(F)cc3)no2)CC1 | inconclusive: 18.5 µM [inhibitor, single point] | 
39 | COc1ccc(N2CCn3c2nc2c3c(=O)n(CCCc3ccccc3)c(=O)n2C)cc1 | inconclusive: 4.65 µM [inhibitor, partial curve, poor fit] | 
40 | COc1ccccc1NC(=O)CC1S/C(=N/N=C2\CCCc3ccccc32)NC1=O (centres undefined) | inactive | 
41 | Cn1c(SCC(=O)NC2CCCC2)nnc1-c1ccc(S(=O)(=O)N2CCOCC2)cc1 | inconclusive: 9.28 µM [inhibitor, single point] | 
42 | Cc1ccc(Cl)cc1N1CCN(S(=O)(=O)c2ccc(-c3ccc(=O)[nH]n3)o2)CC1 | inconclusive: 18.5 µM [inhibitor, single point] | 
43 | CN(C)c1nc(=NCc2ccco2)ss1 | active: 2.62 µM | 
44 | CN(Cc1ccccc1)C(=O)c1nc[nH]c1C(=O)N(C)Cc1ccccc1 | inconclusive: 10.4 µM [inhibitor, single point] | 
45 | CC1(C)C(=O)Nc2ccccc2N1C(=O)COC(=O)c1cccnc1 | inconclusive: 0.828 µM [inhibitor, partial curve, poor fit] | 
46 | CC1CCN(S(=O)C23CC4CC(CC(C4)C2)C3)CC1 (centres undefined) | inactive | 

Row | Compound | Potency | activity change, negative = inhibition
47 | O=C(N/N=C/c1ccc(Cl)cc1Cl)C(=O)NC1CC1 | inconclusive: 4.65 µM [inhibitor, partial curve] | 
48 | Nc1ccc2oc(-c3cccc(Br)c3)nc2c1 | inactive | 
49 | COc1ccc(/C=N/NC(=O)c2cc(C)n(-c3ccccc3)c2C)cc1OC | inactive | 
50 | CCCCOc1ccc(NC(=O)CN2CCN(CC)CC2)cc1 | inactive | 
51 | CCn1c(C)nc2cc(C(=O)N/N=C/c3ccccc3C)ccc21 | inconclusive: 16.5 µM [inhibitor, single point] | 
52 | CN(C)CCNC(=O)c1cc2c(s1)-c1ccccc1OC2 | inconclusive: 13.1 µM [inhibitor, single point] | 
53 | COc1ccc(-n2nc(C(=O)NCC(=O)N3CCCC3)c3ccccc3c2=O)cc1 | inconclusive: 13.1 µM [inhibitor, partial curve, poor fit] | 
54 | O=C(Nc1ccc(O)c(-c2nc3ccccc3o2)c1)C1(c2ccc([N+](=O)[O-])cc2)CCCC1 | inconclusive: 18.5 µM [inhibitor, partial curve, poor fit] | 
55 | CCN(CC)c1ccc(C=Nc2cc(C)ccc2C)c(O)c1 | inactive | 
56 | O=C(c1nn2c(C(F)(F)F)cc(-c3cccs3)nc2c1Cl)N1CCCc2ccccc21 | active: 10.4 µM | 
57 | Cc1ccc(NC(=O)CN(C)C(=O)CSc2nc(C)cs2)cc1 | inactive | 
58 | O=C(CCNC(=O)c1ccccc1Cl)Nc1cc(S(=O)(=O)N2CCOCC2)ccc1N1CCOCC1 | inconclusive: 18.5 µM [inhibitor, single point] | 
59 | COc1ccc(Nc2nc3ccccc3nc2-n2nc(C)cc2C)cc1 | inconclusive: 18.5 µM [inhibitor, single point] | 
60 | O=C(c1cccc2ccccc12)N1CCN(c2ccc([N+](=O)[O-])c(N3CCOCC3)c2)CC1 | inconclusive: 10.4 µM [inhibitor, single point] | 
61 | CCn1nc(NS(=O)(=O)c2ccc([N+](=O)[O-])cc2)c2cc3cc(C)ccc3nc21 | inconclusive: 18.5 µM [inhibitor, single point] | 
62 | COc1ccc(-c2nn(Cc3ccccc3)cc2C(=O)N2CCN(c3ncccn3)CC2)cc1 | inconclusive: 14.7 µM [inhibitor, single point] | 
63 | CC(C)/C(=N\NC(=O)Nc1ccccc1)c1ccccc1 | inconclusive: 5.86 µM [inhibitor, partial curve, poor fit] | 
64 | Cc1ccc(S(=O)(=O)Nc2c(NC3CCCCC3)c3ccccc3oc2=O)cc1C | inconclusive: 18.5 µM [inhibitor, single point] | 
65 | Cn1nccc1-c1cc(Cl)cc(Cl)c1O | inactive | 
66 | COc1ccccc1/C=C/C(=O)NCCC1=CCCCC1 | inconclusive: 9.28 µM [inhibitor, single point] | 
67 | O=C(Nc1cccc(NC(=O)c2ccc(-c3ccc(Br)cc3)o2)c1)c1ccccc1 | inactive | 
68 | COc1ccc(NS(=O)(=O)c2ccc3c(c2)NC(=O)CO3)cc1 | inactive | 
69 | COc1ccc2cc(C(=O)C3CCCN(C(=O)CSc4nnc(C)o4)C3)ccc2c1 (centres undefined) | inconclusive: 18.5 µM [inhibitor, single point] | 

Entries of single compounds, quoted from the list:
O=C(CSc1ccc(F)cc1)Nc1ccc(Br)cc1 is entered as activity change, negative = inhibition: inactive: 17.2% [at 5.75 µM]
CN(C)c1nc(=NCc2ccco2)ss1 is entered as Potency: active: 2.62 µM
COc1ccc(-n2nc(C(=O)NCC(=O)N3CCCC3)c3ccccc3c2=O)cc1 is entered as Potency: inconclusive: 13.1 µM [inhibitor, partial curve, poor fit]
